This series addresses T1, Oct-1 (Homo sapiens) (UniProt P14859).
T1 sequence (looked up, limits assumed): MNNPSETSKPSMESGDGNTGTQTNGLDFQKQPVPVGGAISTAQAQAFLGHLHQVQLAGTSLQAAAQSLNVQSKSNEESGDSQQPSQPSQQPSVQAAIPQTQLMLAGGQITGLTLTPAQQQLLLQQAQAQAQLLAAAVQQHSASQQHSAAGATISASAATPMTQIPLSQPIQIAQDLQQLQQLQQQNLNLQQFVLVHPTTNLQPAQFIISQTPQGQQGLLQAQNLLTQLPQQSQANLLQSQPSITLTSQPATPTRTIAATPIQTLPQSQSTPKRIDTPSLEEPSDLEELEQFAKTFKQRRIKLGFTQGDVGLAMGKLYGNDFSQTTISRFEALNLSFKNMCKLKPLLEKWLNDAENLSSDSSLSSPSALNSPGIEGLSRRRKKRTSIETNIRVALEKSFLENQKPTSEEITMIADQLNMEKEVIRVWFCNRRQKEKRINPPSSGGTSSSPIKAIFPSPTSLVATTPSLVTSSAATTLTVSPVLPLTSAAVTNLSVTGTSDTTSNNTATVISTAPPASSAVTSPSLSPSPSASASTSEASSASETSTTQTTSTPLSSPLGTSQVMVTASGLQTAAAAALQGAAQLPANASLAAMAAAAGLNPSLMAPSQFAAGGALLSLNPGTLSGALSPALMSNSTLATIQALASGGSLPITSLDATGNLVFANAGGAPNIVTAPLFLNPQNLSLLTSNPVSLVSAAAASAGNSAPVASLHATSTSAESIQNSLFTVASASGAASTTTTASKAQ
The series is described as follows: binding assay. Conditions: fluorescence quenching; intensity increased; protein in an extract; protein details: HeLa nuclear extract, Promega; label: 5'-fluorescein both strands; variant of JD49F/50F.

Results from cells or extracts need not show a direct contact. No signal at the amounts used counts as a negative. Where a protein sequence is shown, tags need not be part of it.

Turning to “GAGTCGGCACCTCATGTG (double strand) [JD51F/52F]”, the binding result is “no binding”.

These data come from patent publication US6294333, “Fluorescent intensity assay for protein or peptide binding to nucleic acids” (Ingeneus Corp.).
